Data as given in PubChem BioAssay AID1224830 (NIAID, 2016)
Shown is a random part of about 18,000 deposited reagents. Of all reagents, about 2,900 (16%) are marked active. 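Calls are made per well; low scores hint the gene aids the LPS response, high scores that it dampens it.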 A number with no mark means an inactive call. Repeated entries: four replicate wells of each siRNA pool. Reagent sequences are not shown.

- Aim: 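Genes whose knock-down alters the TNF-alpha reporter response to LPS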 (primary screen)
- System: human THP-1 monocytic leukaemia cells, TNF dual-luciferase reporter clone, PMA-differentiated to macrophage-like cells
- Reagents: siRNA pool against human genes, 50 nM
- Duration: LPS for 4 h, given about 3 days after siRNA transfection
- Conditions: bacterial LPS (TLR4 ligand), 10 ng/ml
- Measured: 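Ratio of firefly to renilla light, scaled to the plate median and expressed as a robust z-score per replicate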
- Scale: TNF reporter robust z-score: higher = stronger TNF reporter response to LPS
- Call rule: 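a well is active when its z-score exceeds 2.8 or falls below -1.5; control wells carry no call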

| gene | TNF reporter robust z-score |
| --- | --- |
| CFAP221 (GeneID 200373) | -0.35 |
| CFAP221 (GeneID 200373) | -0.51 |
| CFAP221 (GeneID 200373) | -0.19 |
| CFAP221 (GeneID 200373) | -0.34 |
| ALKAL1 (GeneID 389658) | 2.24 |
| ALKAL1 (GeneID 389658) | 2.03 |
| ALKAL1 (GeneID 389658) | 0.35 |
| ALKAL1 (GeneID 389658) | 2.16 |
| SSMEM1 (GeneID 136263) | -0.75 |
| SSMEM1 (GeneID 136263) | -0.85 |
| SSMEM1 (GeneID 136263) | -0.44 |
| SSMEM1 (GeneID 136263) | -1.07 |
| ALG10B (GeneID 144245) | 4.93 (active) |
| ALG10B (GeneID 144245) | 1.21 |
| ALG10B (GeneID 144245) | 3.57 (active) |
| ALG10B (GeneID 144245) | 2.63 |
| AUH (GeneID 549) | -0.11 |
| AUH (GeneID 549) | 1.21 |
| AUH (GeneID 549) | 1 |
| AUH (GeneID 549) | 1.34 |
| TMEM26 (GeneID 219623) | 0.14 |
| TMEM26 (GeneID 219623) | -0.48 |
| TMEM26 (GeneID 219623) | -0.86 |
| TMEM26 (GeneID 219623) | 2.16 |
| TGFBR1 (GeneID 7046) | -0.94 |
| TGFBR1 (GeneID 7046) | 0.27 |
| TGFBR1 (GeneID 7046) | -0.62 |
| TGFBR1 (GeneID 7046) | -0.03 |

5 entries already listed, arranged by “TNF reporter robust z-score”, lowest first:
| gene | TNF reporter robust z-score |
| --- | --- |
| SSMEM1 (GeneID 136263) | -0.75 |
| ALKAL1 (GeneID 389658) | 0.35 |
| ALKAL1 (GeneID 389658) | 2.03 |
| ALKAL1 (GeneID 389658) | 2.16 |
| ALKAL1 (GeneID 389658) | 2.24 |

Next records:
| gene | TNF reporter robust z-score |
| --- | --- |
| STKLD1 (GeneID 169436) | 0.14 |
| STKLD1 (GeneID 169436) | -0.98 |
| STKLD1 (GeneID 169436) | 1.14 |
| STKLD1 (GeneID 169436) | 0.61 |
| CYB5R3 (GeneID 1727) | -1.21 |
| CYB5R3 (GeneID 1727) | -0.92 |
| CYB5R3 (GeneID 1727) | -0.87 |
| CBX3 (GeneID 11335) | 0.26 |
| CBX3 (GeneID 11335) | 0.7 |
| CBX3 (GeneID 11335) | -0.26 |
| CBX3 (GeneID 11335) | 0.17 |
| ADORA1 (GeneID 134) | 0.19 |
| ADORA1 (GeneID 134) | 1.91 |
| ADORA1 (GeneID 134) | 1.42 |
| ADORA1 (GeneID 134) | 0.85 |
| CDY1B (GeneID 253175) | -1.38 |
| CDY1B (GeneID 253175) | -0.94 |
| CDY1B (GeneID 253175) | -1.24 |
| CDY1B (GeneID 253175) | -1.12 |
